These are yes or no findings as the source states them, for the method shown. Some results given as binding are weak or reduced against the parent protein; the word gives no strength.
T1: human heat shock transcription factor Hsf1, wild type (human), Q00613
T1 chain: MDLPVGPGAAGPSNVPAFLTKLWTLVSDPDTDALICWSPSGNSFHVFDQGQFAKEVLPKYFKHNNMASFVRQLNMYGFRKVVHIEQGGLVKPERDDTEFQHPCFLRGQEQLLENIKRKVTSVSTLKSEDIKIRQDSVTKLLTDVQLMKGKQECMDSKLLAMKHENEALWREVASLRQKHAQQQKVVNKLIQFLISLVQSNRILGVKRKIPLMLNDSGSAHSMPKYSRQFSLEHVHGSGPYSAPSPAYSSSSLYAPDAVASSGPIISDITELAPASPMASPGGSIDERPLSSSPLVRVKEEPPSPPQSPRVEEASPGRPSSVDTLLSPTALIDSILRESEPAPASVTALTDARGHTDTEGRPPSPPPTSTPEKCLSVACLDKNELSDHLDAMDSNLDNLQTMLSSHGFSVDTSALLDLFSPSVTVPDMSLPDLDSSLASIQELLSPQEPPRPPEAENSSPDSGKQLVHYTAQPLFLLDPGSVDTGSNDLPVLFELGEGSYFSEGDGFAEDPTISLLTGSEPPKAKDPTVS


Columns and labels:
[1] = target: human heat shock transcription factor Hsf1, wild type (human) (UniProt Q00613); assay: condition: only monomeric SEC fraction without heat shock; native gel or EMSA; blue native polyacrylamide gel; monomeric SEC fraction of Hsf1 without heat shock (0°C control); both purified
[2] = target: T1, human heat shock transcription factor …; assay: HDX-MS; 5 µM Hsf1 or mutant in Hsf1-buffer pre-incubated 10 or 30 min at 20-42°C, diluted 1:20 into D2O buffer, 30 s at 20°C, quenched, online pepsin, LC-MS; both purified; details: remark: other sources report otherwise

Molecule	binding [1]	binding [2]
human heat shock transcription factor Hsf1, wild type (from UniProt Q00613 1-529)	no binding	
human heat shock transcription factor Hsf1, wild type, Q00613 1-529 (natural protein) MDLPVGPGAAGPSNVPAFLTKLWTLVSDPDTDALICWSPSGNSFHVFDQGQFAKEVLPKYFKHNNMASFVRQLNMYGFRKVVHIEQGGLVKPERDDTEFQHPCFLRGQEQLLENIKRKVTSVSTLKSEDIKIRQDSVTKLLTDVQLMKGKQECMDSKLLAMKHENEALWREVASLRQKHAQQQKVVNKLIQFLISLVQSNRILGVKRKIPLMLNDSGSAHSMPKYSRQFSLEHVHGSGPYSAPSPAYSSSSLYAPDAVASSGPIISDITELAPASPMASPGGSIDERPLSSSPLVRVKEEPPSPPQSPRVEEASPGRPSSVDTLLSPTALIDSILRESEPAPASVTALTDARGHTDTEGRPPSPPPTSTPEKCLSVACLDKNELSDHLDAMDSNLDNLQTMLSSHGFSVDTSALLDLFSPSVTVPDMSLPDLDSSLASIQELLSPQEPPRPPEAENSSPDSGKQLVHYTAQPLFLLDPGSVDTGSNDLPVLFELGEGSYFSEGDGFAEDPTISLLTGSEPPKAKDPTVS		binds

From article PMC4775227, “Molecular mechanism of thermosensory function of human heat shock transcription factor Hsf1” (eLife, 2016)
